# From PubChem BioAssay AID445 (National Center for Advancing Translational Sciences (NCATS), 2006)
# The list shows a part of the results. These are further read-outs of the screen, such as a control signal, another cell line or another target. No call is given for them. Most of these compounds were active or inconclusive in the main read-out, so they are no random draw. Potencies come from curve fits of mixed quality, noted in brackets.
# Test: IkB Signaling
# Details: ABC-DLBCL IkBa-CBG/CBR dual luciferase ratio (green luciferase fused to IkBa over red control in OCI-Ly3 lymphoma cells), 4 h
# Procedure, shortened: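 Curves were fitted separately to fusion (green), unfused (red) and ratio luminescence, then classed by r2, magnitude and activity. Cells: OCI-Ly3, 4 h compound plus doxycycline at 37C; 10 uM MG-132 defined full response.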
# [1] = measured here: control luc red channel unless noted
# [2] = measured here: IkB-luc green channel
# [3] = measured here: control luc red channel
compound,measurement,setting,value
COc1ccc(OC)c(CNC(=O)c2cc(=O)[nH]c3ccc(S(=O)(=O)N4CCCCC4C)cc23)c1 (stereo not given),AC50,[1],"7.94 µM [rising, partial curve]"
Cc1ccc2cccc(NC(=O)c3ccc(-c4ccc(Cl)cc4Cl)o3)c2n1,AC50,[1],"3.16 µM [rising, single point]"
Cc1ccc(S(=O)(=O)N(CC(=O)NCc2ccco2)Cc2ccc(F)cc2)cc1,AC50,[1],"10 µM [falling, partial curve]"
COc1ccccc1/C=C(\C#N)c1nc(-c2cc3ccccc3oc2=O)cs1,AC50,[1],"15.8 µM [falling, partial curve]"
CCC(=O)Nc1ccc(S(=O)(=O)NCc2cccn2Cc2cccc(C)c2)cc1,AC50,[1],"31.6 µM [falling, single point]"
CCc1ccccc1NC(=O)CSc1ncc2c(n1)-c1ccccc1N(C)S2(=O)=O,AC50,[2],"31.6 µM [rising, partial curve]"
same,AC50,[3],"25.1 µM [rising, partial curve]"
O=C(NCCC1=CCCCC1)c1ccc2c(c1)ncn2-c1cccc(Cl)c1,AC50,[1],"0.0316 µM [rising, full curve, poor fit]"
COc1cc(-c2nc3cnccn3c2Nc2ccccc2)ccc1O,AC50,[2],"31.6 µM [falling, single point]"
same,AC50,[3],"12.6 µM [falling, partial curve]"
Cc1ccc(C)c(N2CCN(CCCNc3ncnc4onc(-c5ccc(Cl)cc5)c34)CC2)c1,AC50,[1],"25.1 µM [falling, single point]"
Cc1ccc(NC(=O)[C@H](CSCc2ccccc2)N2Cc3ccccc3C2=O)cc1,AC50,[1],"3.98 µM [rising, partial curve]"
COc1ccccc1N1CCN(C(=O)CCNS(=O)(=O)c2ccc3c(c2)CCC(=O)N3)CC1,AC50,[1],"15.8 µM [falling, partial curve]"
Cc1ccc(C(=O)N2c3nc(-c4ccco4)nn3C3(CCCCC3)[C@@H]3CCCC[C@@H]32)cc1,AC50,[1],"7.94 µM [falling, partial curve]"
CC1CCN(S(=O)(=O)c2cccc(C(=O)NC3CCS(=O)(=O)C3)c2)CC1 (stereo not given),AC50,[1],"0.2 µM [falling, single point]"
COc1ccc(C)cc1NC(=O)CSc1nnc(COc2ccc(C)cc2)n1Cc1ccco1,AC50,[1],"12.6 µM [falling, partial curve]"
CCCCN(C)CCNC(=O)c1cc(-c2ccc(Cl)s2)nc2ccccc12,AC50,[1],"15.8 µM [falling, partial curve]"
COc1ccc(-c2cccc(NS(=O)(=O)c3ccc(NC(C)=O)cc3)c2)nn1,AC50,[1],"7.94 µM [falling, partial curve]"
O=C(O)CCN1C(=S)CSC1=S,AC50,[1],"2.51 µM [falling, partial curve]"
O=C(NCc1ccco1)c1cc(S(=O)(=O)N2CCOCC2)c(Cl)cc1Cl,AC50,[1],"5.01 µM [rising, partial curve] [measured here: IkB-luc green channel]"
Cc1ccc(-c2nc3scc(CCNS(=O)(=O)c4ccc(Oc5ccccc5)cc4)n3n2)cc1,AC50,[1],"5.01 µM [rising, partial curve]"
CCOC(=O)c1c(-c2ccccc2)csc1NC(=O)c1nc(SCC)ncc1Cl,AC50,[1],"1.26 µM [falling, partial curve]"
CC(=O)Nc1ccc(NC(=O)c2ncoc2-c2ccco2)cc1,AC50,[1],"20 µM [falling, single point]"
Cc1ccc2nc(CSc3nnc(NC(=O)c4ccc(C(C)(C)C)cc4)s3)cc(=O)n2c1,AC50,[1],"6.31 µM [rising, single point]"
Cc1cccc(CC(=O)N2CC(=O)Nc3ccc(F)cc3C2c2ccccc2)c1 (stereo not given),AC50,[1],"20 µM [falling, partial curve]"
NC(N)=NC(N)=Nc1cccc(Cl)c1,AC50,[1],"39.8 µM [falling, partial curve]"
Cc1ccc(CNC(=O)CSc2c(C(C)C)cnc3c2c(=O)n(C)c(=O)n3C)cc1,AC50,[1],"31.6 µM [falling, single point]"
CCc1ccccc1NC(=O)Nc1ccc2snnc2c1,AC50,[1],"31.6 µM [falling, partial curve]"
CCC(CC)C(=O)N1CCc2cc(OC)c(OC)cc2C1COc1ccc(F)cc1 (stereo not given),AC50,[1],"31.6 µM [falling, single point]"
Cc1cccc(-n2ncc(C(=O)NCc3ccc4c(c3)OCO4)c2C2CCN(C(=O)OC(C)(C)C)CC2)c1,AC50,[1],"15.8 µM [falling, partial curve]"
Cc1cccc(-c2noc(CN(C(=O)c3c(-c4ccccc4Cl)noc3C)C(C)C)n2)c1,AC50,[1],"10 µM [falling, partial curve]"
O=C(CSc1nc(Nc2ccc(F)c(F)c2)c2ccccc2n1)c1ccc(Cl)cc1,AC50,[1],"25.1 µM [falling, partial curve, poor fit]"
CC1=C(C(=O)Nc2ccccc2)C(c2ccc(O)cc2)n2nc(-c3ccc(Cl)cc3)nc2N1 (stereo not given),AC50,[1],"15.8 µM [falling, partial curve]"
Cc1oc2ccc(O)c(CN3CCC(C)CC3)c2c1C(=O)Nc1ccccc1,AC50,[1],"15.8 µM [falling, partial curve, poor fit]"
CCn1c(CN2CCCCC2)nc2cc(NC(=O)COc3ccc(C(C)(C)C)cc3)ccc21,AC50,[1],"12.6 µM [falling, partial curve]"
Cc1cccc(N2CCN(C(=O)c3ccc(NS(=O)(=O)c4c(C)noc4C)cc3)CC2)c1C,AC50,[1],"15.8 µM [falling, partial curve]"
CCCN1C(=O)C(Cc2nc3ccccc3c(=O)n2CC)c2cc(Br)ccc21 (stereo not given),AC50,[1],"39.8 µM [falling, single point]"
Cc1ccc(CN2C(=O)C3(c4ccccc42)N(c2ccc(C)c(Cl)c2)C(=O)CS3(=O)=O)cc1 (stereo not given),AC50,[1],"0.0398 µM [falling, full curve]"
O=C(CCC1N=C2c3ccccc3N=C(SCc3cccc(Cl)c3)N2C1=O)NCCc1ccccc1 (stereo not given),AC50,[1],"25.1 µM [falling, partial curve]"
CCOC(=O)CSc1cccc2cccnc12,AC50,[1],"5.01 µM [rising, full curve] [measured here: IkB-luc green channel]"

# Retrieved one by one from the entries so far, three records:
compound,measurement,setting,value
Cc1cccc(N2CCN(C(=O)c3ccc(NS(=O)(=O)c4c(C)noc4C)cc3)CC2)c1C,AC50,[1],"15.8 µM [falling, partial curve]"
CC(=O)Nc1ccc(NC(=O)c2ncoc2-c2ccco2)cc1,AC50,[1],"20 µM [falling, single point]"
Cc1oc2ccc(O)c(CN3CCC(C)CC3)c2c1C(=O)Nc1ccccc1,AC50,[1],"15.8 µM [falling, partial curve, poor fit]"
